# Measurements reported in PubChem BioAssay AID504786 (Drosophila RNAi Screening Center, 2011).
# Test: 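Fly genes required for HIF-dependent transcription when hypoxia is mimicked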 (primary screen)
# System: Drosophila S2 cells with a stable HIF luciferase reporter
# Reagent: long dsRNA against Drosophila genes, about 0.2 µg dsRNA per well of a 384-well plate
# Timing: three days of knock-down, then 20 h of DFO before reading
# Treatment: desferrioxamine (DFO) at 100 µM, an iron chelator that mimics hypoxia, for 20 h
# Detection: 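HIF reporter luminescence in cells given 100 µM DFO for 20 h, using the mouse ldh-a hypoxia-response element, scored as per-plate z-scores; higher means greater loss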
# Direction: z-score: higher = stronger loss of HIF reporter signal
# In all, the deposit lists about 21,000 reagents; shown is a random part of those that have a named target and a result. 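Primary screen; positive scores mean lost reporter signal, so the sign may be inverted from the usual convention.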 Reagents against one gene are numbered here. A plus sign joins genes that one reagent is predicted to hit. Further read-outs or replicates are left out here. Reagent sequences are not shown.
target gene,reagent no.,"z-score, replicate 1","z-score, replicate 2","z-score, replicate 3"
Sptr (Sepiapterin reductase),1,-0.1,0.1,
CG31730,1,-0.4,-0.1,
Marcal1,1,-0.1,-0.9,
Mgat4a,1,-0.4,-0.1,
Mgat4a,2,-0.1,-0.4,
CG30275,1,-0.4,-0.3,
eEFSec,1,1.6,1.9,
CG3164,1,-0.4,-0.6,
hpRNA:CR18854 (hairpin RNA:CR18854),1,-0.2,0.4,
CHKov2 (CHK domain ov2),1,-0.3,-0.1,
CG6654,1,-0.2,0,
Rbp1-like,1,-0.3,-0.9,
Tgi (Tondu-domain-containing Growth Inhibitor),1,-0.3,-0.1,
Tgi (Tondu-domain-containing Growth Inhibitor),2,-0.5,-1,
Ugt36A1 (UDP-glycosyltransferase family 36 member A1),1,-0.4,-0.6,
CG31038,1,-0.3,-0.3,
CG31038,2,-0.2,-0.1,
CG31038,3,-0.3,-0.4,
CG13870,1,0.1,0.2,
qless,1,0.7,0.4,
qless,2,0.6,1,
CG13344,1,-0.3,0.2,
CG13318,1,0,-0.9,
CG6738,1,-0.5,-0.6,
CG32301,1,-0.3,-0.6,
Sh (Shaker),1,-0.2,-0.4,
Sh (Shaker),2,-0.4,-0.2,
Sh (Shaker),3,0.3,0.1,
Sh (Shaker),4,-0.4,-0.5,
Tsc1,1,-0.5,-1.4,
CG11679,1,0.2,-0.1,
CG7296,1,-0.4,-0.8,-0.3
CG18335,1,-0.2,-0.2,
Parg (Poly(ADP-ribose) glycohydrolase),1,-0.3,-0.5,
sif (still life),1,-0.3,-0.2,
sif (still life),2,-0.2,-0.7,
Coq4 + frc,1,0.1,-0.3,
Coq4 + frc,2,-0.1,-0.1,
DIP-beta (Dpr-interacting protein beta),1,0.6,0.2,
DIP-beta (Dpr-interacting protein beta),2,-0.4,-0.8,
DIP-beta (Dpr-interacting protein beta),3,-0.1,-0.2,
DIP-beta (Dpr-interacting protein beta),4,-0.1,-0.4,
CG7985,1,-0.2,-0.7,
CG13398,1,-0.4,-0.7,
kune (kune-kune),1,0,-0.2,
Atat (alpha-tubulin acetylase),1,-0.2,-0.4,
Rs1,1,-0.3,0.7,
Cyp4d8 (Cytochrome P450 4d8),1,-0.3,-0.5,
CG4610,1,-0.4,-0.6,
Ibf2 (Insulator binding factor 2),1,-0.2,0.2,
ranshi,1,-0.3,-0.4,
Cpr78Cb (Cuticular protein 78Cb),1,-0.1,-0.1,
"E(spl)m3-HLH (Enhancer of split m3, helix-loop-helix)",1,-0.4,-0.3,
CG8236,1,-0.1,-0.3,
CG14454,1,-0.2,-0.5,
CG10663,1,-0.3,0.1,
Cpr60D (Cuticular protein 60D),1,-0.1,-0.5,
hth (homothorax),1,-0.4,-0.5,
Cyp4d21 (Cytochrome P450 4d21),1,-0.3,-0.3,
CG17249,1,-0.2,-0.4,
CG9775,1,-0.3,-0.4,
cype (cyclope),1,0.7,1.4,
Cmpk (Cytidine/uridine monophosphate kinase 1),1,-0.3,-0.1,
NitFhit (Nitrilase and fragile histidine triad fusion protein),1,-0.1,-0.4,
Spx (Spliceosomal protein on the X),1,4.6,2.6,
CG2816,1,-0.4,-0.3,
CG34221,1,0,0.1,
dany (distal antenna-young),1,-0.2,-0.2,
CG14341,1,-0.1,-0.3,
CG13003,1,-0.4,-0.5,
CG34393,1,-0.3,0,
CG34393,2,-0.3,-0.2,
CG18547,1,0,0,
CheB38a (Chemosensory protein B 38a),1,0,-0.1,-0.5
ord (orientation disruptor),1,-0.2,0.1,
CG13046,1,-0.3,0.1,
CG8584,1,-0.3,-0.1,
G6P (Glucose-6-Phosphatase),1,0.6,0.7,
bond (james bond),1,-0.2,-0.4,
CG12948,1,-0.3,-0.5,
Cad74A (Cadherin 74A),1,-0.1,0.6,
CG30289,1,0.1,-0.3,
Gclc (Glutamate-cysteine ligase catalytic subunit),1,-0.3,-0.4,

Reprinted from above, 7 entries:
target gene,reagent no.,"z-score, replicate 1","z-score, replicate 2","z-score, replicate 3"
CG34393,2,-0.3,-0.2,
CG18547,1,0,0,
CheB38a (Chemosensory protein B 38a),1,0,-0.1,-0.5
ord (orientation disruptor),1,-0.2,0.1,
CG13046,1,-0.3,0.1,
CG8584,1,-0.3,-0.1,
G6P (Glucose-6-Phosphatase),1,0.6,0.7,
